Experimental data from paper PMC12431657, “Discovery and mechanistic insights of dibenzoylmethane as a broad spectrum inhibitor of coronavirus” (PLOS Pathogens, 2025).
Counter-ions that a name gives are not always drawn. Like-named read-outs stand apart in the source and are kept apart here. Among all 3,300 compounds or so, about 95 (3%) showed an effect of 50% or more. The list shows a part of the results.

Test system: HCoV-229E
Design: species or system Huh-7; HTS, protection from HCoV-229E induced cell death, luminescent cell viability (CellCounting-Lite 2.0), inhibition rate
Settings: 24 h post infection, 1 h compound pre-incubation, 10 µM, inhibitor

| SMILES | 229E Inhibition rate | 229E Inhibition rate (229E Inhibition rate, 24 h) |
| --- | --- | --- |
| CC(C)(C)c1ccc(O)c(C(C)(C)C)c1 [2,4-Di-tert-butylphenol] | 22.7% |  |
| N[C@@H](CC(=O)N[C@@H](CC(=O)O)C(=O)O)C(=O)O [β-Aspartylaspartic acid] | 12.1% |  |
| CCCC(=O)c1c(O)c(Cc2c(O)c(Cc3c(O)c(C)c(OC)c(C(=O)CCC)c3O)c(O)c(C(=O)[C@@H](C)CC)c2O)c(O)c(C)c1OC [Agrimol B] | 3.6% |  |
| COc1c2ccoc2nc2c(O)cccc12 [Robustine] | 10.4% |  |
| COc1ccc(-c2cc(=O)c3c(OC)c(OC)c(OC)c(OC)c3o2)cc1O [3'-Demethylnobiletin] | 15.4% |  |
| COCC(=O)O [Methoxyacetic acid] | 9% |  |
| Cn1cc(C(=O)O)ccc1=O [1-Methyl-6-oxo-1,6-dihydropyridine-3-carboxylic acid] | 24% |  |
| O=C(O)CCCCC(=O)O [Adipic acid] | 15.1% |  |
| COc1cc2c3c(c1OC)-c1ccccc1C[C@H]3N(C)CC2 [Nuciferine] | 11.6% |  |
| C[C@@H]1O[C@@H](OC[C@H]2O[C@@H](Oc3c(-c4ccc(O)cc4)oc4cc(O[C@@H]5O[C@@H](C)[C@H](O)[C@@H](O)[C@H]5O)cc(O)c4c3=O)[C@H](O)[C@@H](O)[C@H]2O)[C@H](O)[C@H](O)[C@H]1O [Robinin] | 8.6% |  |
| CC(=O)[C@H]1CC[C@H]2[C@@H]3CCC4=CC(=O)CC[C@]4(C)[C@H]3CC[C@]12C [Progesterone] | 0% |  |
| COc1ccc([C@H]2OC[C@H]3[C@@H]2CO[C@H]3c2ccc(O[C@@H]3O[C@H](CO)[C@@H](O)[C@H](O)[C@H]3O)c(OC)c2)cc1OC [Phillyrin] | 0% |  |
| Cc1ccc(C(N)=O)cn1 [6-Methylnicotinamide] | 13.1% |  |
| CC(C)C[C@@](O)(CC(=O)OCc1ccc(O[C@@H]2O[C@H](CO)[C@@H](O)[C@H](O)[C@H]2O)cc1)C(=O)OCc1ccc(O[C@@H]2O[C@H](CO)[C@@H](O)[C@H](O)[C@H]2O)cc1 [Militarine] | 10.3% |  |
| OC[C@H]1O[C@@](CO)(OC[C@@]2(O[C@H]3O[C@H](CO)[C@@H](O)[C@H](O)[C@H]3O)O[C@H](CO)[C@@H](O)[C@@H]2O)[C@@H](O)[C@@H]1O [1-Kestose] | 18.6% |  |
| COc1ccc([C@@H]2CC(=O)c3c(O)cc(O[C@@H]4O[C@H](CO[C@@H]5O[C@@H](C)[C@H](O)[C@@H](O)[C@H]5O)[C@@H](O)[C@H](O)[C@H]4O)cc3O2)cc1 [Didymin] | 9.3% |  |
| C[N+](C)(C)CCCCC(=O)[O-] [delta-Valerobetaine] | 15.5% |  |
| CN(C)[C@@H]1C(O)=C(C(N)=O)C(=O)[C@@]2(O)C(O)=C3C(=O)c4c(O)cccc4[C@@](C)(O)[C@H]3[C@H](O)[C@@H]12 [Oxytetracycline] |  | 35.1% |
| O=C[C@H](O)[C@@H](O)[C@H](O)CO [Xylose] |  | 21.1% |
| O=C(O)C(O)Cc1ccc(O)c(O)c1 (centres unmarked) [Danshensu (sodium salt)] | 10.9% |  |

Filtered by structure: those above containing a carbonyl joined to an NH by a bond outside any ring (3)

| SMILES | 229E Inhibition rate | 229E Inhibition rate (229E Inhibition rate, 24 h) |
| --- | --- | --- |
| N[C@@H](CC(=O)N[C@@H](CC(=O)O)C(=O)O)C(=O)O [β-Aspartylaspartic acid] | 12.1% |  |
| Cc1ccc(C(N)=O)cn1 [6-Methylnicotinamide] | 13.1% |  |
| CN(C)[C@@H]1C(O)=C(C(N)=O)C(=O)[C@@]2(O)C(O)=C3C(=O)c4c(O)cccc4[C@@](C)(O)[C@H]3[C@H](O)[C@@H]12 [Oxytetracycline] |  | 35.1% |

(listing goes on)

| SMILES | 229E Inhibition rate | 229E Inhibition rate (229E Inhibition rate, 24 h) |
| --- | --- | --- |
| CSC(=O)OCC1=C[C@@H]2OC(=O)C3=CO[C@@H](O[C@@H]4O[C@H](CO)[C@@H](O)[C@H](O)[C@H]4O)[C@H]1[C@@H]32 [Paederoside] | 7.5% |  |
| Cc1cc(=O)oc2cc(O)c(O)cc12 [4-Methylesculetin] | 17.7% |  |
| N[C@@H](Cc1cc(I)c(Oc2cc(I)c(O)c(I)c2)c(I)c1)C(=O)O [L-Thyroxine] | 13.8% |  |
| CC(=O)OCC1=C[C@H](O)[C@@H]2C(C(=O)O)=CO[C@@H](O[C@@H]3O[C@H](CO)[C@@H](O)[C@H](O)[C@H]3O)[C@H]12 [Asperulosidic Acid] | 10.9% |  |
| CC(C)=CCC[C@]1(C)C=Cc2c(O)c3c(c(CC=C(C)C)c2O1)O[C@]12C(=C[C@@H]4C[C@H]1C(C)(C)O[C@@]2(C/C=C(/C)C(=O)O)C4=O)C3=O [Gambogic Acid] | 0.4% |  |
| CC(C)(O)[C@@H]1Cc2c(cc3oc(CO)cc(=O)c3c2O)O1 [Angelicain] | 9.5% |  |
| O=C1Nc2ccccc2/C1=C1/Nc2ccccc2C1=O [Indirubin] | 35.2% |  |
| CC(C)c1ccc2c(c1)CC[C@H]1[C@](C)(C(=O)O)CCC[C@]21C [Dehydroabietic acid] | 34% |  |
| CC(=O)c1c(C)c([N+](=O)[O-])c(C(C)(C)C)c([N+](=O)[O-])c1C [Musk ketone] | 24.2% |  |
| COc1ccc(-c2oc3c(CC=C(C)C)c(O)cc(O)c3c(=O)c2O[C@@H]2O[C@@H](C)[C@H](O)[C@@H](O)[C@H]2O[C@@H]2O[C@@H](C)[C@H](O)[C@@H](O)[C@H]2O)cc1 [2''-O-Rhamnosylicariside II] | 18.9% |  |
| O=c1ccc2cc(O)c(O[C@@H]3O[C@H](CO)[C@@H](O)[C@H](O)[C@H]3O)cc2o1 [Cichoriin] | 20.6% |  |
| COc1cc(OC)cc(OC)c1 [1,3,5-Trimethoxybenzene] | 55.2% |  |
| C=C(C)[C@H](CC=C(C)C)Cc1c(O)cc(O)c2c1O[C@H](c1ccc(O)cc1O)CC2=O [sophoraflavanone G] | 75.7% |  |
| Oc1ccc(OC2CCCCO2)cc1 (centres unmarked) [Deoxyarbutin] | 23.7% |  |
| CNCc1ccccc1 [N-Methylbenzylamine] | 21.7% |  |
| C=C1C[C@@]23CC[C@H]4[C@@](C)(CCC[C@@]4(C)C(=O)O)[C@@H]2CC[C@]1(O)C3 [Steviol] | 19% |  |
| CC[C@@H](N)C(=O)O [D(-)-2-Aminobutyric acid] | 10.6% |  |
| CCc1c2c(nc3ccccc13)-c1cc3c(c(=O)n1C2)COC(=O)[C@]3(O)CC [7-Ethylcamptothecin] | 3.6% |  |
| O=C1O[C@H]([C@H](O)CO)C(O)=C1O [Sodium erythorbate] |  | 31.1% |
| C=CC1=C(C)c2cc3[nH]c(cc4nc(cc5[nH]c(cc1n2)c(C)c5CCC(=O)O)C(CCC(=O)O)=C4C)c(C)c3C=C [Protoporphyrin IX] | 14.7% |  |

| SMILES | 229E Inhibition rate | 229E Inhibition rate (229E Inhibition rate, 24 h) |
| --- | --- | --- |
| CC(=O)O[C@H]1CC(=O)OC(C)(C)[C@@H]2CC(=O)[C@]3(C)[C@H](CC[C@@]4(C)[C@H](c5ccoc5)OC(=O)[C@H]5O[C@]543)[C@@]12C [Nomilin] | 15.5% |  |
| CCCCCCCC/C=C\CCCCCCCC(=O)OC[C@H](COP(=O)(O)O)OC(=O)CCCCCCC/C=C\CCCCCCCC [1,2-Dioleoyl-sn-glycero-3-phosphate, sodium salt] | 6.8% |  |
| CCN(CC)c1ccc2cc(-c3nc4ccccc4s3)c(=O)oc2c1 [Coumarin 6] | 9.6% |  |
| C=C(C)[C@@H]1CC[C@]2(C(=O)O)CC[C@]3(C)[C@H](CC[C@@H]4[C@@]5(C)CCC(=O)C(C)(C)[C@@H]5CC[C@]43C)[C@@H]12 [Betulonic acid] | 3.5% |  |
| N[C@H](CO)Cc1cnc[nH]1 [L-Histidinol (dihydrochloride)] | 0% |  |
| CC(C)=CCC[C@](C)(O[C@@H]1O[C@H](CO)[C@@H](O)[C@H](O)[C@H]1O)[C@H]1CC[C@]2(C)[C@@H]1[C@H](O)C[C@@H]1[C@@]3(C)CC[C@H](O)C(C)(C)[C@@H]3[C@@H](O)C[C@]12C [Ginsenoside F1] | 20.9% |  |
| Nc1ncnc2c1ncn2[C@@H]1O[C@H](CO)[C@@H](O)[C@H]1O [Adenosine] | 8.7% |  |
| O=C1C[C@@H](c2ccc(O)cc2)Oc2cc(O)ccc21 [Liquiritigenin] | 20.8% |  |
| CC1=C(CC[C@H](C)CO[C@@H]2O[C@H](CO)[C@@H](O)[C@H](O)[C@H]2O)O[C@H]2C[C@H]3[C@@H]4CC[C@@H]5C[C@@H](O[C@@H]6O[C@H](CO)[C@@H](O)[C@H](O)[C@H]6O[C@@H]6O[C@H](CO)[C@@H](O)[C@H](O)[C@H]6O)CC[C@]5(C)[C@H]4CC[C@]3(C)[C@@H]12 [Timosaponin C] | 28.7% |  |
| C[n+]1cc2c3c(ccc2c2ccc4cc5c(cc4c21)OCO5)OCO3 [Sanguinarine (chloride)] | 6.4% |  |
| O=C(O)c1ccccn1 [PCL 016] | 5.4% |  |
| CC(=O)N[C@@H](CCCN)C(=O)O [N-Acetylornithine] | 0% |  |
| C[C@H]1CC[C@@H]2N(C1)C[C@H]1[C@@H]3C[C@H]4[C@@H](CC(=O)[C@H]5C[C@@H](O[C@@H]6O[C@H](CO)[C@@H](O)[C@H](O)[C@H]6O)CC[C@@]54C)[C@@H]3CC[C@@H]1[C@]2(C)O [Edpetiline] | 11.7% |  |
| C[C@@H]1O[C@@H](Oc2cc(O)c3c(c2)O[C@H](c2ccc(O)c(O)c2)[C@@H](O)C3=O)[C@H](O)[C@H](O)[C@H]1O [Taxifolin 7-O-rhamnoside] | 9.6% |  |
| CCCCCCCCCCCCCCCC(=O)NCc1ccccc1 [N-Benzylpalmitamide] | 13.8% |  |
| COc1c(/C=C/C(=O)c2ccc(O)c(O)c2)ccc(O)c1O [Tetrahydroxymethoxychalcone] | 20.6% |  |
| COc1cc(-c2oc3cc(O)cc(O)c3c(=O)c2O[C@@H]2O[C@H](CO[C@@H]3O[C@@H](C)[C@H](O)[C@@H](O)[C@H]3O)[C@@H](O)[C@H](O)[C@H]2O)ccc1O [Narcissin] | 14.4% |  |
| CCCOC(=O)c1cc(O)c(O)c(O)c1 [Propyl gallate] | 8.9% |  |
| N[C@@H]1CONC1=O [D-Cycloserine] | 10.6% |  |
